The chains behind the UniProt entries cited, without tags or fusion partners.
UniProt P04198: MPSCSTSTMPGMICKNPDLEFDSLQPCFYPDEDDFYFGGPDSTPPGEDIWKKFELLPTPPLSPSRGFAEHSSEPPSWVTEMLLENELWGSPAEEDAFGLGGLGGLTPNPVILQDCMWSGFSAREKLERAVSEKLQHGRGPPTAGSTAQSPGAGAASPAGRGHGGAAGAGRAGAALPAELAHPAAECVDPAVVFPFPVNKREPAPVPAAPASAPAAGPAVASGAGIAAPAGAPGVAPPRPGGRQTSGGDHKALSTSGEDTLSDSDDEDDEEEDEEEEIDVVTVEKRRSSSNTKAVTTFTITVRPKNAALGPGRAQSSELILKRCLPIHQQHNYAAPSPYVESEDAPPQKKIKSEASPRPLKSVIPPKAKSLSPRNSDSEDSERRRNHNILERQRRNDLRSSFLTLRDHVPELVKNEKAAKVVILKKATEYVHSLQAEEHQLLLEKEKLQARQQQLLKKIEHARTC
UniProt Q9Y4A5: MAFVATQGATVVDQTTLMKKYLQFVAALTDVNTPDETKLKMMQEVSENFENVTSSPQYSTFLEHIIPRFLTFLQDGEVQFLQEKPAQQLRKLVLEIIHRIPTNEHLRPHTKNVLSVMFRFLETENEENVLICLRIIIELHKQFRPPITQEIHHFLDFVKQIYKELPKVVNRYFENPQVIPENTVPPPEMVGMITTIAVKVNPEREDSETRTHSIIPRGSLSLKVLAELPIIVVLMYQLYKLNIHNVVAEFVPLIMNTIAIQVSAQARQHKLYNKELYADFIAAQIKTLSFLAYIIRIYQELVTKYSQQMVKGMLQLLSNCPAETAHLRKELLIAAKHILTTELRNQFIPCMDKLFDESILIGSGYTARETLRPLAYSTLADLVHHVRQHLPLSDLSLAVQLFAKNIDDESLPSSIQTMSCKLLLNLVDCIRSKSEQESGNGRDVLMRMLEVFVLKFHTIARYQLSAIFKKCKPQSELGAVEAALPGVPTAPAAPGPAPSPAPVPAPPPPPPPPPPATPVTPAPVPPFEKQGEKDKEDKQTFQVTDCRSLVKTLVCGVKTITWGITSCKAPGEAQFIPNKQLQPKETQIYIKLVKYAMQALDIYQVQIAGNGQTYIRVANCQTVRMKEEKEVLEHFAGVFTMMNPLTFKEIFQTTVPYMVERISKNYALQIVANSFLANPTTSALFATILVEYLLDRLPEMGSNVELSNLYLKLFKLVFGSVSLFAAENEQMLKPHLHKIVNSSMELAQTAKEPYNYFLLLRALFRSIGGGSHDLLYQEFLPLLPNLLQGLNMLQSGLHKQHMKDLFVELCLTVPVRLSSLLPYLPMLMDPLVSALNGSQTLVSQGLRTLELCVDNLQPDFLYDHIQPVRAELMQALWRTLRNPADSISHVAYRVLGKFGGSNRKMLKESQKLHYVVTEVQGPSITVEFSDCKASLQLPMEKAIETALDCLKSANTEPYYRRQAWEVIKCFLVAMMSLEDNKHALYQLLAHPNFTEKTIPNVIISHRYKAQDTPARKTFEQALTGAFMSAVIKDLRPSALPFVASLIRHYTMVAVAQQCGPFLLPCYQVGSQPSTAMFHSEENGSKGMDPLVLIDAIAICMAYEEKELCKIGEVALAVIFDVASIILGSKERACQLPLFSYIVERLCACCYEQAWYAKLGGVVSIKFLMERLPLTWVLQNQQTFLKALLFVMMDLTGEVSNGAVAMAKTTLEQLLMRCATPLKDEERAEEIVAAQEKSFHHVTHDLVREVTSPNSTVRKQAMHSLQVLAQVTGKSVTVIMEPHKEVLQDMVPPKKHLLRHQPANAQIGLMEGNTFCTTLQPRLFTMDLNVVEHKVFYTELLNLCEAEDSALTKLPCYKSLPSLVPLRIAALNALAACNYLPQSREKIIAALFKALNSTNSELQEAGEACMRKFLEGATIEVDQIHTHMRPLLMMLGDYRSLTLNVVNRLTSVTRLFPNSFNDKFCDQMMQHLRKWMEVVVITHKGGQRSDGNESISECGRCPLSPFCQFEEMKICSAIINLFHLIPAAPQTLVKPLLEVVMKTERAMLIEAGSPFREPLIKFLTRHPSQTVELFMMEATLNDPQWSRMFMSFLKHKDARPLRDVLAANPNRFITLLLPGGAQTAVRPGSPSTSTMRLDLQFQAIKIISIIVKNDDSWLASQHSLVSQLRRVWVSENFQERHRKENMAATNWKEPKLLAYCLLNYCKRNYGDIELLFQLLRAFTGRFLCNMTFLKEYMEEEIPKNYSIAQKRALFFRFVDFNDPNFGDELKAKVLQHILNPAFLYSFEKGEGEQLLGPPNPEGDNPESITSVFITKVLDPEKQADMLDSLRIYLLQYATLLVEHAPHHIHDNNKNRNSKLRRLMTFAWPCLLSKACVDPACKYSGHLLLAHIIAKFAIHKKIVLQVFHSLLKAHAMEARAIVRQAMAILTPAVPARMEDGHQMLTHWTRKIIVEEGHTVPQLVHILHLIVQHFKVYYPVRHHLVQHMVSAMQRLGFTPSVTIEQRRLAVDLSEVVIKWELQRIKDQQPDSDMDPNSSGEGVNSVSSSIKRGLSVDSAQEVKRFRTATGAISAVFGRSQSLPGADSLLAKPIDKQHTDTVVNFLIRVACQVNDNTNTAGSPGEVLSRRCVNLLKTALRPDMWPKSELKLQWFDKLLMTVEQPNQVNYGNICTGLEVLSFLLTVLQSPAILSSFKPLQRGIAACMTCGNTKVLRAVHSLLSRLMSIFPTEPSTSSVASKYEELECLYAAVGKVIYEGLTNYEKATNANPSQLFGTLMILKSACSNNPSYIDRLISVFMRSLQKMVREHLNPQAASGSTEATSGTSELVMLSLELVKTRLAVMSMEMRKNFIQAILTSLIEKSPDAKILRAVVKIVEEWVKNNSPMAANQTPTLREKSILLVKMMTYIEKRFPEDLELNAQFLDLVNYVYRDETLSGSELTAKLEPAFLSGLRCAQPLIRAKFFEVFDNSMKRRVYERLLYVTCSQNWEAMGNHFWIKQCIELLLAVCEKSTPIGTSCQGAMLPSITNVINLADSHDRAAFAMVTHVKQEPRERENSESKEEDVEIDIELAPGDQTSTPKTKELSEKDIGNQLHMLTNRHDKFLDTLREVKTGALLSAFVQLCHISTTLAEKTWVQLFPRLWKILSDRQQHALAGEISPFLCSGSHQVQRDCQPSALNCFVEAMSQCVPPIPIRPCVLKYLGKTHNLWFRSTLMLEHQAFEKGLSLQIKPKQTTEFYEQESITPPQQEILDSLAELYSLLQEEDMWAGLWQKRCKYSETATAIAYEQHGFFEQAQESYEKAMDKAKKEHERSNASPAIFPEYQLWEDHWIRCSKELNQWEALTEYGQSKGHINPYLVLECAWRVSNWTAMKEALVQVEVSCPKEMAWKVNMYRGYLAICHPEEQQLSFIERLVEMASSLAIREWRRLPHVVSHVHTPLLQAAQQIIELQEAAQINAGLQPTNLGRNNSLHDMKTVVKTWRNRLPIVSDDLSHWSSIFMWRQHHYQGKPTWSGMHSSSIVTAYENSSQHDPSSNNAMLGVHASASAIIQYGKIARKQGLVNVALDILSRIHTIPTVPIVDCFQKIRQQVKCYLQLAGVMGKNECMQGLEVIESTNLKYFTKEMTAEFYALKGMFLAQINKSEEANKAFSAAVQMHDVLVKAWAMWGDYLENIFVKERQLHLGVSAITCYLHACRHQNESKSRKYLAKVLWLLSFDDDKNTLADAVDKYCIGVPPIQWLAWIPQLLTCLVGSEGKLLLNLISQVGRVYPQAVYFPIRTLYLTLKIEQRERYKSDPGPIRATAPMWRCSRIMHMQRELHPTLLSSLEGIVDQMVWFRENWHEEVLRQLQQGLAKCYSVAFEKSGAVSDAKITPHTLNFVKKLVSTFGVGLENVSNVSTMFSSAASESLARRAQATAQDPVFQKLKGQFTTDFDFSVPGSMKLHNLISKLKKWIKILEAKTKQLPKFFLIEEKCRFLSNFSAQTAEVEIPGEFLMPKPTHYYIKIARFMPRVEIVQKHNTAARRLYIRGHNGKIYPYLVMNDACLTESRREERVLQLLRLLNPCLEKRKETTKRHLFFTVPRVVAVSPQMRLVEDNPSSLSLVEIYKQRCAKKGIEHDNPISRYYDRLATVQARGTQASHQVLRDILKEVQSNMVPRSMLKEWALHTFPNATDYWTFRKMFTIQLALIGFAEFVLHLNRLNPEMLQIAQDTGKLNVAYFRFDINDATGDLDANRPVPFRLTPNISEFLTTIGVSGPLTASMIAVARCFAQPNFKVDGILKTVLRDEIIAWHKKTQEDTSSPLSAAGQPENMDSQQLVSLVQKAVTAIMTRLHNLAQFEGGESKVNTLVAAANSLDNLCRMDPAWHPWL
UniProt O95347: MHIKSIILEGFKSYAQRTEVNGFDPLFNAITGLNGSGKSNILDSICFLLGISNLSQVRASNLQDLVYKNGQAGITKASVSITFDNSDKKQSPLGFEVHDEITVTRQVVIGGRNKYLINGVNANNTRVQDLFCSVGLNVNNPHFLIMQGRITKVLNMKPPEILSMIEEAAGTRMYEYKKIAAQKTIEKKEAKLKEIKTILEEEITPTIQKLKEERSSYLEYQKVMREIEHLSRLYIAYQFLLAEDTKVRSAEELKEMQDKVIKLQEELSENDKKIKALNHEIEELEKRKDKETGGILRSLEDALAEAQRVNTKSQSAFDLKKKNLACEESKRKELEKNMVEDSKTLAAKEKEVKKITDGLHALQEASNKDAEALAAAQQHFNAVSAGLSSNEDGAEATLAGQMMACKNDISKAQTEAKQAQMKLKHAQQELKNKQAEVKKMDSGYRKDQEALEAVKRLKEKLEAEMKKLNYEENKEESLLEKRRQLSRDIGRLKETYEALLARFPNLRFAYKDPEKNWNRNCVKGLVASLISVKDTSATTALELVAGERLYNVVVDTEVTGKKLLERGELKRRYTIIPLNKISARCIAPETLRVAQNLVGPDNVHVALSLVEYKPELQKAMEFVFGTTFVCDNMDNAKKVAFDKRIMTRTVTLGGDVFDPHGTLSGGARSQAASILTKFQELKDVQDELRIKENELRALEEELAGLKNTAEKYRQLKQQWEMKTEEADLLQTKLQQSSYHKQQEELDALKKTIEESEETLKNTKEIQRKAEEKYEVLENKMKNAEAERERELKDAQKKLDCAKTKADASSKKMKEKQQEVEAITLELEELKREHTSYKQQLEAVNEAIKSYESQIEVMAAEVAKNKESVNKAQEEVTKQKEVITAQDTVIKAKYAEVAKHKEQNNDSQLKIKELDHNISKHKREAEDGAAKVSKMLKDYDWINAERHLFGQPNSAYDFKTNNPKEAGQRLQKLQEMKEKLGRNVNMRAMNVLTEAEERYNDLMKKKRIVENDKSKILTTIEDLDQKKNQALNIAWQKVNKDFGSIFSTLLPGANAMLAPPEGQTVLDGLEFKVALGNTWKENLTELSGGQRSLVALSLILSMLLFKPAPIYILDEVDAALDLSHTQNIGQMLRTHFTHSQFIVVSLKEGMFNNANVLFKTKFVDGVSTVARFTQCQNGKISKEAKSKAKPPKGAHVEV
UniProt P35998: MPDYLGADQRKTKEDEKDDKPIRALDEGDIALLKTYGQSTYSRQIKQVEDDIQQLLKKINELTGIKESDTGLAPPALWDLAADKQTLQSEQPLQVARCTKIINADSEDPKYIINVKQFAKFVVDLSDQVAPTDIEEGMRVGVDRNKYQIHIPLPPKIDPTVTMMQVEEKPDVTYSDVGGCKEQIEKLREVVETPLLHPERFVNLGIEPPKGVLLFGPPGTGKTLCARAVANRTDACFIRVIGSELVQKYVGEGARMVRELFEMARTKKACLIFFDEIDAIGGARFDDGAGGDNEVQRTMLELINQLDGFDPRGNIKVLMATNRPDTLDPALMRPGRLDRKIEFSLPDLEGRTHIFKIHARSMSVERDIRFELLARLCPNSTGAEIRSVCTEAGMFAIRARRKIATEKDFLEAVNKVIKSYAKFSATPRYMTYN
UniProt P25786: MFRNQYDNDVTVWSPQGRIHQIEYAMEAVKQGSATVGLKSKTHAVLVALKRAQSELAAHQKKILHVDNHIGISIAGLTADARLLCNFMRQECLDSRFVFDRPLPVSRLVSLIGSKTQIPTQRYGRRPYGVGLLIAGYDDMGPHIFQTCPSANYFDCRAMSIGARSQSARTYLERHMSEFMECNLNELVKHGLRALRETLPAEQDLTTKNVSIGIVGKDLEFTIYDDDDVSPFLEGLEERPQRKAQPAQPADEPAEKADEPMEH
UniProt P61244: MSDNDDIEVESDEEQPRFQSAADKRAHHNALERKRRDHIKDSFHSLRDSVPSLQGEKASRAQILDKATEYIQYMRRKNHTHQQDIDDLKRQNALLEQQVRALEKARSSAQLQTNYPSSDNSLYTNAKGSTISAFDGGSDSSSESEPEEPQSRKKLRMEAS

According to article PMC9984901:

Assays:
[1] = biological target: 3xFLAG-N-Myc (full-length N-Myc with a 3xFLAG tag) (UniProt P04198); assay: affinity purification with mass spectrometry; exogenous co-IP using FLAG beads: lysate of 293T cells stably expressing 3xFLAG-N-Myc (MG132 10 μg/ml 6 h), anti-FLAG magnetic beads overnight at 4 °C, 293T cells expressing 3xFLAG as negative control; wash 50 mM Tris, 150 mM NaCl, 0.5% Tween-20, pH 7.5; HPLC-MS/MS, three replicates
[2] = biological target: N-Myc proto-oncogene protein (human (endogenous in SK-N-BE(2))) (UniProt P04198); assay: affinity purification with mass spectrometry; endogenous co-IP: SK-N-BE(2) lysate (cells pretreated with MG132 10 μg/ml 6 h), N-Myc antibody overnight at 4 °C and protein A/G magnetic beads, normal IgG as negative control; wash 50 mM Tris, 150 mM NaCl, 0.5% Tween-20, pH 7.5; HPLC-MS/MS, label-free quantification, three replicates
[3] = biological target: 3xFLAG-N-Myc (full-length N-Myc with a 3xFLAG tag) (UniProt P04198); assay: affinity purification with mass spectrometry; exogenous co-IP using N-Myc antibody: lysate of 293T cells stably expressing 3xFLAG-N-Myc (MG132 10 μg/ml 6 h), N-Myc antibody overnight at 4 °C and protein A/G magnetic beads; IgG on the same lysate and N-Myc antibody on 3xFLAG lysate as negative controls; HPLC-MS/MS, three replicates

Molecule | binding [1] | binding [2] | binding [3]
TRRAP (from UniProt Q9Y4A5 1-3859) | binds | binds | binds
HUWE1 (from UniProt Q7Z6Z7 1-4374) | binds | binds | binds
SMC2 (from UniProt O95347 1-1197) | binds | binds | binds
PSMC2 (from UniProt P35998 1-433) | binds | binds | binds
PSMA1 (from UniProt P25786 1-263) | binds | binds | binds
HSPH1 (from UniProt Q92598 1-858) | binds | binds | binds
MAX (from UniProt P61244 1-160) | binds | binds | binds
EP400 (from UniProt Q96L91 1-3159) | binds | binds | binds
histone acetyltransferase p300 (from UniProt Q09472 1-2414) | binds | – | –
PSMC1 (from UniProt P62191 1-440) | binds | binds | binds
SLC25A10 (protein, UniProt Q9UBX3 1-287) MAAEARVSRWYFGGLASCGAACCTHPLDLLKVHLQTQQEVKLRMTGMALRVVRTDGILALYSGLSASLCRQMTYSLTRFAIYETVRDRVAKGSQGPLPFHEKVLLGSVSGLAGGFVGTPADLVNVRMQNDVKLPQGQRRNYAHALDGLYRVAREEGLRRLFSGATMASSRGALVTVGQLSCYDQAKQLVLSTGYLSDNIFTHFVASFIAGGCATFLCQPLDVLKTRLMNSKGEYQGVFHCAVETAKLGPLAFYKGLVPAGIRLIPHTVLTFVFLEQLRKNFGIKVPS | binds | binds | binds
PYCRL (protein, UniProt Q53H96 1-274) MAAAEPSPRRVGFVGAGRMAGAIAQGLIRAGKVEAQHILASAPTDRNLCHFQALGCRTTHSNQEVLQSCLLVIFATKPHVLPAVLAEVAPVVTTEHILVSVAAGVSLSTLEELLPPNTRVLRVLPNLPCVVQEGAIVMARGRHVGSSETKLLQHLLEACGRCEEVPEAYVDIHTGLSGSGVAFVCAFSEALAEGAVKMGMPSSLAHRIAAQTLLGTAKMLLHEGQHPAQLRSDVCTPGGTTIYGLHALEQGGLRAATMSAVEAATCRAKELSRK | binds | binds | binds

These are yes or no findings as the source states them, for the method shown. Binding seen in cells or lysates may run through a third protein. These calls come from enrichment with a bait or labelling near it, and not all partners need be listed.
